In patent publication US8278436B2, “Glycosylated warfarin analogs and uses thereof” (priority 2008, dated 2012):
At least one compound was matched to its structure with a doubt left.

Test system: NCI-H460 human lung adenocarcinoma cells
Experiment: cell proliferation assay, NCI-H460
Format: cell-based
Conditions: Table 3 summary of most active compounds
Text: In this Example, the warfarin neoglycosides of the invention were screened for anti-tumor activity in cell proliferation assays using the following tumor cells lines: A549—human lung adenocarcinoma; H1299—human lung adenocarcinoma (p53 null); HCT-15—human colorectal adenocarcinoma; HT-29—human colorectal adenocarcinoma; MCF7—human breast adenocarcinoma; NCI-H460—human lung adenocarcinoma; SF-268—human CNS adenocarcinoma; and SKOV-3—human ovarian adenocarcinoma.
All cell lines were maintained as previously reported (see Langenhan, J. M.; Peters, N. R.; Guzei, I. A.; Hoffmann, F. M.; Thorson, J. S. Proc. Natl. Acad. Sci. USA 2005, 102, 12305-12310, which is incorporated by reference herein). Cells were harvested using 0.25% trypsin and 0.1% EDTA and counted in a Cellometer Auto T4 cell counter (Nexcelom, Inc.) prior to dilution for assay plating. Cells were plated at a denity of 500 cells per well in 50 μL volumes in 384-well clear-bottom tissue culture plates (Corning-Costar, Inc.).
Compounds were added from the 384-well compound stock plates at a 1:100 dilution using a Biomek FX liquid handler equipped with a 384-channel head (Beckman Coulter, Inc.). […] Luminescence resulting from incubation with Calcein AM and EthD-1 was read using a Safire-2 microplate reader at the appropriate wavelengths. […] The luminescence of each plate was re-read to confirm the observed inhibition. […]

With `CON(C(C)CC(c1ccccc1)c1c(O)c2ccccc2oc1=O)C1O[C@H](COCc2ccccc2)[C@@H](OCc2ccccc2)[C@@H]1OCc1ccccc1` (stereo partly shown) [WARF Analog 42] the IC50 was 48 µM.
